Measurements reported in paper PMC2816223, “Designed Coiled-Coil Peptides Inhibit the Type Three Secretion System of Enteropathogenic Escherichia coli” (PLoS ONE, 2010).
These are yes or no findings as the source states them, for the method shown. Some entries that bind do so weakly or less than the wild type.

Biological target: EspA (E. coli EPEC E2348/69 (endogenous)) (UniProt Q47184)
Experiment: Western blot of polymer species

B1: EspA (protein, UniProt Q47184 1-192)
chain: MDTSTTASVASANASTSTSMAYDLGSMSKDDVIDLFNKLGVFQAAILMFAYMYQAQSDLSIAKFADMNEASKESTTAQKMANLVDAKIADVQSSSDKNAKAQLPDEVISYINDPRNDITISGIDNINAQLGAGDLQTVKAAISAKANNLTTTVNNSQLEIQQMSNTLNLLTSARSDMQSLQYRTISGISLGK
For B1, the binding was “binds”.
